These are yes or no findings as the source states them, for the method shown. Some entries that bind do so weakly or less than the wild type.

The chains behind the UniProt entries cited, without tags or fusion partners. Where a name states a change or a piece, a line headed by the entry shows the natural chain unless it says otherwise.
UniProt Q13131: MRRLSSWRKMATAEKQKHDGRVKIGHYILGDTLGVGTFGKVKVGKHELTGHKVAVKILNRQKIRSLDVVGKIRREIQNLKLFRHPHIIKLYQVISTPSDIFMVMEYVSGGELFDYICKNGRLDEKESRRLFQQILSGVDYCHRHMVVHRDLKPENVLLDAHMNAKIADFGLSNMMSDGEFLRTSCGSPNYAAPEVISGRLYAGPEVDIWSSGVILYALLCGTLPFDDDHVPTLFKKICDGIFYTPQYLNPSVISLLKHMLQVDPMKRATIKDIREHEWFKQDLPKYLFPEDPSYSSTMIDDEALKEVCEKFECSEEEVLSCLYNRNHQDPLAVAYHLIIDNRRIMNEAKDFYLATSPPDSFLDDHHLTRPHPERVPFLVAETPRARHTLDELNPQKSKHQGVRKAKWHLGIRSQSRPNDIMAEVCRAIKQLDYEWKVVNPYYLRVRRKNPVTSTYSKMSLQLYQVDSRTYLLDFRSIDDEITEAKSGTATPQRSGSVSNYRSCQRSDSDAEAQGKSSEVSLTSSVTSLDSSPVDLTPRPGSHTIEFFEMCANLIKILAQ

The values that follow come from patent US20230117831A1, “MULTI-FUNCTIONAL CHIMERIC MOLECULES” (THE BROAD INSTITUTE, INC., priority 2020, published 2023).

Experiment [1] deals with BRD2. Nature of the experiment: AlphaScreen ternary complex assay with His-tagged AMPK and BRD2-GST; the concentration of the bridging compound PHICS1 is varied. For orientation: Alpha assays give light when donor and acceptor beads are brought close together.
Experiment [2] has as its target BRD3. As to the kind of experiment: AlphaScreen ternary complex assay with His-tagged AMPK and BRD3-GST; the concentration of the bridging compound PHICS1 is varied.

On to “AMPK α1β1γ1-His tag (SignalChem P47-10H) (from UniProt Q13131 1-559; Q9Y478 1-270; P54619 1-331) (enzyme)”, for which the binding entry in experiment [1] and in experiment [2] was “binds” throughout.
